In PubChem BioAssay (EPA / NIEHS):
The shares of active, inactive and inconclusive entries below differ from those in the screen. Potencies beside an inconclusive call are fits to weak or partial responses and may not hold up. Calls of active or inactive are those of the source. Rule for the calls: active = hit-call score of the fitted dose curve at least 0.9, where 1 is the maximum; inconclusive = response in the unintended direction; inactive = score below 0.9.

By UniProt entry, the sequences of proteins in these tests, tags left out. Where a name states a change or a piece, a line headed by the entry shows the natural chain unless it says otherwise.
UniProt P57717: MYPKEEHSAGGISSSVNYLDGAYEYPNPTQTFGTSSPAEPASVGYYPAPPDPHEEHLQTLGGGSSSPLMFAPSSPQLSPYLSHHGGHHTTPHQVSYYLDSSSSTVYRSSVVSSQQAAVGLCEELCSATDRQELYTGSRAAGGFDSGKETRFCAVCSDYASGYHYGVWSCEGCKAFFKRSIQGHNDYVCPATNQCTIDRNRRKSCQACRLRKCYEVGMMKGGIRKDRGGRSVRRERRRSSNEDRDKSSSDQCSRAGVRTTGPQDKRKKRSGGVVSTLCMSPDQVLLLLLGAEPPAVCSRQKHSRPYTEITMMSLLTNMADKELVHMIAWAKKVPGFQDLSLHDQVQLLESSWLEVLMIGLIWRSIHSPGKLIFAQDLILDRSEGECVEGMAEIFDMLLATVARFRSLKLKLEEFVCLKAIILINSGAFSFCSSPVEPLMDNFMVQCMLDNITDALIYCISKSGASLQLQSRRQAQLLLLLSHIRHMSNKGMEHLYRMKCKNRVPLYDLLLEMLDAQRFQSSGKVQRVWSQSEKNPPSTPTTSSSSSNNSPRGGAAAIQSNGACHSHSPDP

tested on: frog Androgen Receptor (AR), gene 399456; assay: ATG_frAR_XSP1: Attagene TRANS-FACTORIAL Multi-Species (XSP1) HepG2 Assay for frog Androgen Receptor (AR) (AID 2283770)

Row | Compound | AC50
1 | CCOCN(C(=O)CCl)c1c(C)cccc1CC | inconclusive: 63.2 µM
2 | CC(C)NC(=O)N1CC(=O)N(c2cc(Cl)cc(Cl)c2)C1=O | inconclusive: 29 µM
3 | CCCCOC(=O)c1ccccc1C(=O)OCCCC | inconclusive: 46.1 µM
4 | CC(C)(c1ccccc1)c1ccc(O)cc1 | inconclusive: 10 µM
5 | CCCN(CCC)c1c([N+](=O)[O-])cc(C(F)(F)F)cc1[N+](=O)[O-] | inconclusive: 36.9 µM
6 | CON(C)C(=O)Nc1ccc(Cl)c(Cl)c1 | inconclusive: 41.6 µM
7 | C[C@]12CCC(=O)C[C@@H]1CC[C@@H]1[C@@H]2CC[C@]2(C)[C@@H](O)CC[C@@H]12 | active: 0.177 µM
8 | C[C@]12C=CC3=C4CCC(=O)C=C4CC[C@H]3[C@@H]1CC[C@@H]2O | active: 0.0124 µM
9 | CCCOCC(=Nc1ccc(Cl)cc1C(F)(F)F)n1ccnc1 | inconclusive: 1.55 µM
10 | COP(=S)(OC)Oc1ccc(SC)c(C)c1 | inconclusive: 44 µM
11 | CCCCNC(=O)OCC#CI | inconclusive: 6.89 µM
12 | C#CCOS(=O)OC1CCCCC1Oc1ccc(C(C)(C)C)cc1 (stereo not drawn) | active: 2.11 µM

biological target: zebrafish Estrogen Receptor (ESR1), esr1 (gene 259252) (UniProt P57717); assay: ATG_zfER1_XSP1: Attagene TRANS-FACTORIAL Multi-Species (XSP1) HepG2 Assay for zebrafish Estrogen Receptor (ESR1) (AID 2283772)
Outline: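 Trans-activation readout: transfected zebrafish ER-Gal4 drives a UAS reporter in human HepG2 liver cells. After 24 h compound exposure (medium containing 3 nM 6-alpha-fluorotestosterone), induced reporter transcripts were quantified by RT-PCR with capillary electrophoresis, relative to DMSO.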

Row | Compound | AC50 | outcome
13 | COP(=O)(OC)O/C(=C\Cl)c1cc(Cl)c(Cl)cc1Cl | inconclusive: 26.2 µM | 
14 | CCN(CC)C(=O)C(C)Oc1cccc2ccccc12 (stereo not drawn) |  | inactive
15 | C=CC1(C)OC(=O)N(c2cc(Cl)cc(Cl)c2)C1=O (stereo not drawn) | inconclusive: 0.00914 µM | 
16 | CC(C)(O)C(=O)Nc1ccc([N+](=O)[O-])c(C(F)(F)F)c1 | inconclusive: 50 µM | 
17 | Oc1ccc(Cl)cc1Cc1ccccc1 |  | inactive
18 | COP(=S)(OC)Oc1ccc([N+](=O)[O-])c(C)c1 |  | inactive
19 | CCC[CH2][Sn]([Cl])([CH2]CCC)[CH2]CCC | inconclusive: 0.0814 µM | 
20 | CCCCCOC(=O)c1ccccc1C(=O)OCCCCC |  | inactive
21 | CO/C=C(/C(=O)OC)c1ccccc1Oc1cc(Oc2ccccc2C#N)ncn1 | inconclusive: 9.14e-05 µM | 
22 | CC(=O)c1cc2c(cc1C)C(C)(C)C(C)CC2(C)C (stereo not drawn) | inconclusive: 155 µM | 
23 | O=S1OCC2C(CO1)C1(Cl)C(Cl)=C(Cl)C2(Cl)C1(Cl)Cl (stereo not drawn) | inconclusive: 10 µM | 
24 | CC(C)CCCCCCCOC(=O)c1ccccc1C(=O)OCCCCCCCC(C)C | inconclusive: 100 µM | 
25 | CC1(C)C(C=C(Cl)Cl)C1C(=O)OC(C#N)c1ccc(F)c(Oc2ccccc2)c1 (stereo not drawn) | inconclusive: 23.8 µM | 
26 | CC1(C)C(C=C(Cl)Cl)C1C(=O)OC(C#N)c1cccc(Oc2ccccc2)c1 (stereo not drawn) |  | inactive
27 | CCOCN(C(=O)CCl)c1c(C)cccc1CC | inconclusive: 100 µM | 
28 | CC(C)NC(=O)N1CC(=O)N(c2cc(Cl)cc(Cl)c2)C1=O |  | inactive
29 | CCCCOC(=O)c1ccccc1C(=O)OCCCC | inconclusive: 0.929 µM | 
30 | CON(C)C(=O)Nc1ccc(Cl)c(Cl)c1 |  | inactive
31 | C[C@]12CCC(=O)C[C@@H]1CC[C@@H]1[C@@H]2CC[C@]2(C)[C@@H](O)CC[C@@H]12 | inconclusive: 0.237 µM | 
32 | O=C1C2(Cl)C3(Cl)C4(Cl)C(Cl)(Cl)C5(Cl)C3(Cl)C1(Cl)C5(Cl)C24Cl (stereo not drawn) | inconclusive: 3.33 µM | 
33 | COP(=S)(OC)Oc1ccc(SC)c(C)c1 |  | inactive

A different layout for some results above:
CO/C=C(/C(=O)OC)c1ccccc1Oc1cc(Oc2ccccc2C#N)ncn1
  AC50: inconclusive: 9.14e-05 µM
CC(C)NC(=O)N1CC(=O)N(c2cc(Cl)cc(Cl)c2)C1=O
  outcome: inactive
